From the supplement of paper PMC10849652
Some of the results follow.

By UniProt entry, the sequences of proteins in these tests, tags left out. Where a name states a change or a piece, a line headed by the entry shows the natural chain unless it says otherwise.
UniProt Q7Z4G1, whole entry, looked up: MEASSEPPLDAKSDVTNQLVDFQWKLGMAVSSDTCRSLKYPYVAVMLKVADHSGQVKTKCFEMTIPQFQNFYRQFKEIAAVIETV
UniProt P38432, whole entry, looked up: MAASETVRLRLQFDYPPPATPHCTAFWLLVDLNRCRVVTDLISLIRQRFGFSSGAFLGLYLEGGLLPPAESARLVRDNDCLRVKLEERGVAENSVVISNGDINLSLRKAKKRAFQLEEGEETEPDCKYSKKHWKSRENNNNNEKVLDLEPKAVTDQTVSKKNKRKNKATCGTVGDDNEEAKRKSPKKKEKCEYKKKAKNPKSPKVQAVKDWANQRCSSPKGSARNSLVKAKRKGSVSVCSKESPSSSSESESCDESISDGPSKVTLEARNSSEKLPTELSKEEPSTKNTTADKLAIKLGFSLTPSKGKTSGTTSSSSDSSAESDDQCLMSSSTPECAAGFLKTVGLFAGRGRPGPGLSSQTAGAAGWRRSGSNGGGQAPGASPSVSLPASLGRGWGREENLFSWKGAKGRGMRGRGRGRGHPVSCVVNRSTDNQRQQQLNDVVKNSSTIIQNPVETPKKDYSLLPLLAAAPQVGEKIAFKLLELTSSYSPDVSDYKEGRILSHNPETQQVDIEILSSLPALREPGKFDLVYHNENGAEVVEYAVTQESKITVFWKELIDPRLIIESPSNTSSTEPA
UniProt Q9GZY4: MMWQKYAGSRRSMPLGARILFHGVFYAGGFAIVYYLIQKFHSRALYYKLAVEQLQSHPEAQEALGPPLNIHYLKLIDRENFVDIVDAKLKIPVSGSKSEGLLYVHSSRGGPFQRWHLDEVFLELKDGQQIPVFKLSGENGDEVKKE
UniProt Q8N684: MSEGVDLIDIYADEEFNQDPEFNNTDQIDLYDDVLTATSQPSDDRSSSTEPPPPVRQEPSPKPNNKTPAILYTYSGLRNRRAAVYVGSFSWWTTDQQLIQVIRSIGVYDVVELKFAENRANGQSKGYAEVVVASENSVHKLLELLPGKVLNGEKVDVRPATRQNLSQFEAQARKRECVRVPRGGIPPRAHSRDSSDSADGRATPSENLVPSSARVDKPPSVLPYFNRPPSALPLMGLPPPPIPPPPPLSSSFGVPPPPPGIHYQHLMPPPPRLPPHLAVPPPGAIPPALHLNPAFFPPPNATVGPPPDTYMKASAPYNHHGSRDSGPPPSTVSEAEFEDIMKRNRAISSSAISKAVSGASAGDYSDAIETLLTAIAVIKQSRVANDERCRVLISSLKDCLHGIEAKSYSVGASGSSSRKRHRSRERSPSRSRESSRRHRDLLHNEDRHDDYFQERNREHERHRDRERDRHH
UniProt P29373: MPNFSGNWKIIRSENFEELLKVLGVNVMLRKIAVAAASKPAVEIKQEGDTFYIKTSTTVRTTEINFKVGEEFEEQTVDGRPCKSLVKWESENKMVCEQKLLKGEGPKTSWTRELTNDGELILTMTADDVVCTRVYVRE
UniProt Q9Y646: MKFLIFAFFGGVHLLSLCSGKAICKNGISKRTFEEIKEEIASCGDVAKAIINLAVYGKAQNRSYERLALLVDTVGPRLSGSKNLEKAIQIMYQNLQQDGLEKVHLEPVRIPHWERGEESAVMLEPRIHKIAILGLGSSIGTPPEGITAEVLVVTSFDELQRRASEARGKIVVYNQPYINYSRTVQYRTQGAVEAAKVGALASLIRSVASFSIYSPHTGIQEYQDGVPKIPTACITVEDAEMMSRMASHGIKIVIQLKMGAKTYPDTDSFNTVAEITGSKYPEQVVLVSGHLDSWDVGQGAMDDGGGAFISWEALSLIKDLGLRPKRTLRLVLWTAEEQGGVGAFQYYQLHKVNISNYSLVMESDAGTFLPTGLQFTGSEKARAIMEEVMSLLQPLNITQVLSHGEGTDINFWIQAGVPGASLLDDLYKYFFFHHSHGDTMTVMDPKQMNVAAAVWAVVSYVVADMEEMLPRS
UniProt Q86VX2, whole entry, looked up: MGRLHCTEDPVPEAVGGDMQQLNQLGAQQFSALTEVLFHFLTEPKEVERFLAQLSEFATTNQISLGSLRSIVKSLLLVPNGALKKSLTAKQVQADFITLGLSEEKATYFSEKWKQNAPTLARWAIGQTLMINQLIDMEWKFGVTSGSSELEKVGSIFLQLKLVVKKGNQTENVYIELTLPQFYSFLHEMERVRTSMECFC
UniProt P53618: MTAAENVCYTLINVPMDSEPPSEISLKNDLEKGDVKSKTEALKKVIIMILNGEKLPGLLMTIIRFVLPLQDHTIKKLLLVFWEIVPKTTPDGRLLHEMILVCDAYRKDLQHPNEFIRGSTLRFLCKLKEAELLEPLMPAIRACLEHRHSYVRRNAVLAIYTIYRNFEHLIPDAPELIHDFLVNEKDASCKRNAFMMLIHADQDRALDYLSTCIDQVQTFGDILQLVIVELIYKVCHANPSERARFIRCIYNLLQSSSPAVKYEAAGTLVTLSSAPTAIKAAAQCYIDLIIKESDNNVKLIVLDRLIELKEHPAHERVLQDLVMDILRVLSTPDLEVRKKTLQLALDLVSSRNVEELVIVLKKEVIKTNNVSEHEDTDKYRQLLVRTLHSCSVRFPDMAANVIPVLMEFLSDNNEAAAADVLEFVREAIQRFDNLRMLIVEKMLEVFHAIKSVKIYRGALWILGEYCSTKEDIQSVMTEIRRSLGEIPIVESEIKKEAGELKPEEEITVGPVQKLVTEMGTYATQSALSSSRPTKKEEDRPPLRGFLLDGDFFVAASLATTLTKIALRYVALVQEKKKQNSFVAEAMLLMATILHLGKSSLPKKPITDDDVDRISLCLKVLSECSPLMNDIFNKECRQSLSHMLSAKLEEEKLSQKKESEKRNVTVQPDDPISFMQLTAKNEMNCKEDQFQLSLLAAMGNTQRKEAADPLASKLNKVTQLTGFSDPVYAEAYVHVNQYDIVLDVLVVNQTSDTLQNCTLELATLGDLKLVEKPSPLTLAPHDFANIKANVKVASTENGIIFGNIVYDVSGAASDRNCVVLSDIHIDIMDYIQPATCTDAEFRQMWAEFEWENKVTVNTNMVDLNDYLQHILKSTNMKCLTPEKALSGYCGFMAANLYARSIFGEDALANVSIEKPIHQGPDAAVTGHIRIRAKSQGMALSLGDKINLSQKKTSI
UniProt Q9UFF9, whole entry, looked up: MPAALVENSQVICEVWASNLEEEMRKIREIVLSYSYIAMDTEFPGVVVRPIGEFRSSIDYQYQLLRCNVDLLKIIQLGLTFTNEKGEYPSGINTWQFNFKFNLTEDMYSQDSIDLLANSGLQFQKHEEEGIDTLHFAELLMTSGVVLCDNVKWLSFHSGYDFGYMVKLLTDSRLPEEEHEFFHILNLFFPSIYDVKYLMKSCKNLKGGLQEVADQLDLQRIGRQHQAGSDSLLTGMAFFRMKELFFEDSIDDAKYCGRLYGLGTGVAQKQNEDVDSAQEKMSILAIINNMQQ
UniProt Q99829: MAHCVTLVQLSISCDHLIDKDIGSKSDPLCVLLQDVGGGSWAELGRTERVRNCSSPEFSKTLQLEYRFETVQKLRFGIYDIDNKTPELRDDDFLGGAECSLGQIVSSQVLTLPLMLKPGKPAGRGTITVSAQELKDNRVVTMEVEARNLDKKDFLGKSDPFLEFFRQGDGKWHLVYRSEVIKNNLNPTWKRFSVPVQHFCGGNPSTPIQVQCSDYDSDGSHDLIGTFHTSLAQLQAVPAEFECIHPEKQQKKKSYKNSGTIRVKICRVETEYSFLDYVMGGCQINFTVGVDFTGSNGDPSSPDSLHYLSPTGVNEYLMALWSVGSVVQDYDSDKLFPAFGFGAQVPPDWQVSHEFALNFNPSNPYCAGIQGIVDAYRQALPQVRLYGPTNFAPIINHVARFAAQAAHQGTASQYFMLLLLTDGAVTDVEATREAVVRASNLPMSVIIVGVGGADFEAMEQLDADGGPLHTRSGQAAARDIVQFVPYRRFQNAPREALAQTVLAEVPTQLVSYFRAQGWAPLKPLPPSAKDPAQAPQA
UniProt Q5JTJ3: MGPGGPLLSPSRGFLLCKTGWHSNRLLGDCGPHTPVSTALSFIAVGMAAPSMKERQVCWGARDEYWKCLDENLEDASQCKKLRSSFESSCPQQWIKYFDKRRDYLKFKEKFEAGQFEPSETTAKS
UniProt Q8N129: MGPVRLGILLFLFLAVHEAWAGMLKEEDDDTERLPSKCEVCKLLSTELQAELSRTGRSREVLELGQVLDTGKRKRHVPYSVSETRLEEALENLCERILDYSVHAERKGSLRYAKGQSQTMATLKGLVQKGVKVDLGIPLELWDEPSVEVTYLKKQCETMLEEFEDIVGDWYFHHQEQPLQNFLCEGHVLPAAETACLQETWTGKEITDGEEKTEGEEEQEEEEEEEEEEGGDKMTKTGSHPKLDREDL
UniProt P61923: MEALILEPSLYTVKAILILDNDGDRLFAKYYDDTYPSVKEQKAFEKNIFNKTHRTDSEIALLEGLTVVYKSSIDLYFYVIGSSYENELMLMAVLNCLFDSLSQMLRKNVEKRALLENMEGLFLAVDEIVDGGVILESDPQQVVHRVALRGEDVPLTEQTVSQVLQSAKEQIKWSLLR
UniProt O95628: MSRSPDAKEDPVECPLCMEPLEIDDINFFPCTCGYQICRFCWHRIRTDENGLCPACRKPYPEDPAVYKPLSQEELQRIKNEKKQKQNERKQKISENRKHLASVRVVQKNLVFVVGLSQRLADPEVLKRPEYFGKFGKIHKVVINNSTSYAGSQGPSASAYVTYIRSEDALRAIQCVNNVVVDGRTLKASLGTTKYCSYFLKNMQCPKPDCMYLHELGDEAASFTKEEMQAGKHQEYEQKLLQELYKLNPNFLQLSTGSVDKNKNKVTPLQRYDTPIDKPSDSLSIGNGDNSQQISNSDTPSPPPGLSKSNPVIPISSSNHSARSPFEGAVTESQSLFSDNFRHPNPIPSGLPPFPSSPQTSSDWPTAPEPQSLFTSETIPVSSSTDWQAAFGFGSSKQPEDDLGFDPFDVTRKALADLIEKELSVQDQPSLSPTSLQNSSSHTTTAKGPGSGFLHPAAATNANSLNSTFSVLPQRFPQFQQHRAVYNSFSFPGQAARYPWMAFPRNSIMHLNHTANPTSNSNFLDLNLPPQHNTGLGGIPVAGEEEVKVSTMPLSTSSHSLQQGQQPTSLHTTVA
UniProt Q8NE01: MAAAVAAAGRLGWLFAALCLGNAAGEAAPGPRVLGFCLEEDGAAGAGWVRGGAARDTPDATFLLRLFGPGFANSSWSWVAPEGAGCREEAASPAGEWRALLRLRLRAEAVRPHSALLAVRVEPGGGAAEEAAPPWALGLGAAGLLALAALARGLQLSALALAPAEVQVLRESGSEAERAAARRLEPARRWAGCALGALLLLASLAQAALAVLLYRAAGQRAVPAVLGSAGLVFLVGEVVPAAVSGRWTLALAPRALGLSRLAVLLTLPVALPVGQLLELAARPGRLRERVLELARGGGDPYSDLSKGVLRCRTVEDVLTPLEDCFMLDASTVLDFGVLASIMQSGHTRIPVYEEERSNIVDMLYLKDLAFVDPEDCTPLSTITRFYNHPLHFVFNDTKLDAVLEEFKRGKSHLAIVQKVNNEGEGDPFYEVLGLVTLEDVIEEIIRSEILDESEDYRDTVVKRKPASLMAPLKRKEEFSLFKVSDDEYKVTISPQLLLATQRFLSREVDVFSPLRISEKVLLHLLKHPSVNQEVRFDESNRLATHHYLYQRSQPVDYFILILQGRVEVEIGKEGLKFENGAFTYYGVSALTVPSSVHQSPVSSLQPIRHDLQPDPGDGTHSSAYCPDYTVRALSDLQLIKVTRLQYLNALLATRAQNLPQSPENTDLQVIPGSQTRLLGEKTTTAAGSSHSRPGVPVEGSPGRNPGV
UniProt Q9NX08, whole entry, looked up: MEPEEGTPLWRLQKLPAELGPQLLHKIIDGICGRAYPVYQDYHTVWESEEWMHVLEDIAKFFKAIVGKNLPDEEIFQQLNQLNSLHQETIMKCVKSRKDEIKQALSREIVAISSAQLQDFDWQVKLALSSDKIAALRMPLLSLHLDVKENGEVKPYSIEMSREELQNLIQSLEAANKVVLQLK
UniProt Q9UBL6: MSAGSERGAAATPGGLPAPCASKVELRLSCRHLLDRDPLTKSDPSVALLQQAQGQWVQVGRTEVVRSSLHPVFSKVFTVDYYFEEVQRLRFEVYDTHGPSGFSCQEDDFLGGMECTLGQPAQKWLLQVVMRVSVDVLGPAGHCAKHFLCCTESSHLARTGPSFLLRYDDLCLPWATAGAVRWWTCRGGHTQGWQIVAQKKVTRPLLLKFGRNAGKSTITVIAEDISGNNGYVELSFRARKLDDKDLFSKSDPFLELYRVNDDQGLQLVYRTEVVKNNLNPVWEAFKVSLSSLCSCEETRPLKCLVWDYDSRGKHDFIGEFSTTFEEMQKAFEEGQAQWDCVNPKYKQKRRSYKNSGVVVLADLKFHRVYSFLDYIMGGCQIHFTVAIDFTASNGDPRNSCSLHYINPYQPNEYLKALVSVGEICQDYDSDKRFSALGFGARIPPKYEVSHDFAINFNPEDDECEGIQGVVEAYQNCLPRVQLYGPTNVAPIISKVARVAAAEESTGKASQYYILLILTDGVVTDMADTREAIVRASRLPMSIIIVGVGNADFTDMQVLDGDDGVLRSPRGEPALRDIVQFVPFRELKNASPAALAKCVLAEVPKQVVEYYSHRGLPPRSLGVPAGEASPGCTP

Compound: Cc1cn(-c2cc(NC(=O)c3ccc(C)c(Nc4nccc(-c5cccnc5)n4)c3)cc(C(F)(F)F)c2)cn1 [nilotinib]
Assay: log2 fold change, soluble protein after heating vs DMSO (PISA); higher = thermal stabilisation; K562 lysate, 10 uM; active = over 0.2 and 3.5 SD of the protein, either way, in both replicates (recomputed)
Summary of the method: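 Log-two fold change in thermal stability relative to solvent controls is reported from duplicates. For each sample, crude K562 extract from dounce-homogenised pellets in PBS pH 7.4 with 1 mM MgCl2, at 1 mg/mL protein, was treated with 10 μM compound for 30 min. Aliquots heated for 3 min across 48°C-58°C were pooled, brought to 0.5% NP-40 at 4°C and cleared at 21,000xg for 90 min. The supernatant was quantified by TMTpro 16plex LC-MS/MS with channel sums equalised.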

log2 fold change, inactive:
COMMD6 isoform 2 (UniProt Q7Z4G1) 0.044
COL6A5 (UniProt A8TX70) 0.134
COIL (UniProt P38432) -0.027
CORO1A (UniProt P31146) 0.003
COA1 (UniProt Q9GZY4) -0.026
CPSF7 isoform 3 (UniProt Q8N684) -0.009
CRABP2 (UniProt P29373) -0.063
CPQ (UniProt Q9Y646) 0.011
COMMD7 (UniProt Q86VX2) 0.02
COPB1 (UniProt P53618) 0.005
CNOT8 (UniProt Q9UFF9) 0.018
CPVL (UniProt Q9H3G5) -0.021
COA3 (UniProt Q9Y2R0) 0.047
CPNE1 (UniProt Q99829) -0.028
COA6 isoform 2 (UniProt Q5JTJ3) -0.258
CNPY4 (UniProt Q8N129) 0.143
COPZ1 isoform 4 (UniProt P61923) 0.012
CNOT4 isoform 6 (UniProt O95628) -0.004
CNNM3 (UniProt Q8NE01) 0.001
COMMD8 (UniProt Q9NX08) 0.034
COPA isoform 2 (UniProt P53621) 0.003
CPNE7 (UniProt Q9UBL6) 0.018

Reprinted at random: two records from the list, in no set order.
log2 fold change, inactive:
COPZ1 isoform 4 (UniProt P61923) 0.012
CNPY4 (UniProt Q8N129) 0.143
